Experimental data reported in PubChem BioAssay AID1347076 (National Center for Advancing Translational Sciences (NCATS), 2019).
Hit rate of the full screen: of about 400,000 compounds, about 13,000 (3.2%) were called active. Inconclusive means that the source gave no clear call. Such entries were picked first, then a sample of the others. Calls come from the whole dose curve; as a rule, active = well fitted cell-killing curve with a large enough effect; inconclusive = small, poorly fitted or top-dose-only effect, or effect the other way; inactive = flat fitted curve, though single readings scatter. A potency beside an inconclusive call is a rough fit, not a confirmed value. A structure can be active in one record and inactive in another.

assay: qHTS assay for MDR1-selective chemotherapeutics: Primary screen using the drug-selected MDR subline cells KB-V1; settings: KB-V1 MDR cells viability, CellTiter-Glo, 72 h; activity change, negative = cytotoxicity: at 46.1 µM (top of the series); note: nearly all actives have a fitted effect of over 60% in size
Method in brief: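 KB-V1 cells (P-gp-expressing MDR subline of KB-3-1) in phenol-red-free DMEM with 10% FBS were exposed to library compounds over a concentration series for 72 h at 37 degrees C. Viability read by CellTiter-Glo luminescence; concentration-effect curves fitted after normalization.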
% is set by controls: 0 for no effect and ±100 for the full control effect; potency is the fitted concentration of half-maximal effect.

Row | SMILES | Potency | activity change, negative = cytotoxicity
1 | O=C(N/N=C/c1cn(-c2ccccc2)nc1-c1cccs1)c1ccccc1F | active: 20.6 µM | 
2 | CCCC(C)c1nnc(NC(=O)C(=O)OCC)s1 (stereo not drawn) | inconclusive: 25.9 µM [rising, single point] | 
3 | CSc1nnc2n(-c3cccc(C)c3)c(=O)c3c4c(sc3n12)CCCC4 | inconclusive: 20.6 µM [cytotoxic, single point] | 
4 | COc1ccccc1C(=O)CN1C(=O)NC2(CCCc3ccccc32)C1=O (stereo not drawn) | inconclusive: 20.6 µM [rising, partial curve] | 
5 | Cc1ccc(S(=O)(=O)c2nc(-c3ccc(F)cc3)oc2SCC(=O)NCC2CCCO2)cc1 (stereo not drawn) | active: 1.84 µM | 
6 | C=C1c2ccc(C)cc2NC(=O)N1c1ccccc1 | inconclusive: 32.6 µM [cytotoxic, single point] | 
7 | CC(=O)NC(Cc1ccc(F)cc1)C(=O)NC1CCN(C(=O)Nc2ccc(F)cc2)CC1 (stereo not drawn) |  | inactive: -1.47%
8 | COc1cc(NC(=O)CN2C(=O)NC(c3ccccc3)(c3ccccc3)C2=O)cc(OC)c1 |  | inactive: 3.72%
9 | Cc1c(NC(=O)c2ccc(COc3ccc4ccccc4c3)o2)c(=O)n(-c2ccccc2)n1C | active: 7.31 µM | 
10 | CCn1c(=O)n(CC)c2cc(N3CCCC3)c(NC(=O)Nc3cc(C)cc(C)c3)cc21 | inconclusive: 18.4 µM [cytotoxic, single point] | 
11 | Cc1ccc(CCNC(=O)CSCc2nc(-c3ccc(C)cc3)oc2C)cc1 |  | inactive: -5.67%
12 | NC(=O)COC(=O)CCCc1c[nH]c2ccccc12 | inconclusive: 29.1 µM [rising, single point] | 
13 | COC(=O)c1ccccc1NC(=O)c1ccc(=O)n(Cc2cccc(C)c2)c1 | inconclusive: 29.1 µM [cytotoxic, single point] | 
14 | COc1ccc(C2C(C(=O)N3CC(C)CC(C)C3)c3ccccc3C(=O)N2C)cc1 (stereo not drawn) | inconclusive: 1.64 µM [cytotoxic, full curve] | 
15 | CCOCCn1c(C)c(C(=O)OCC)c2cc(O)c3ccccc3c21 | active: 2.06 µM | 
16 | Cc1ccc(S(=O)(=O)N(C(=O)c2ccco2)c2cc3sc(=O)oc3c3ccccc23)cc1 | inconclusive: 25.9 µM [cytotoxic, single point] | 
17 | COc1cc(NS(=O)(=O)c2ccc(NC(=S)NC(=O)c3cccs3)cc2)nc(OC)n1 |  | inactive: -28.7%
18 | COC(=O)C[C@H]1CC[C@H](NC(=O)c2ccc(F)cc2)[C@@H](CO)O1 |  | inactive: -0.239%
19 | CCCCCOC(=O)C1C2C=CC3(CN(c4ccccc4C)C(=O)C13)O2 (stereo not drawn) | inconclusive: 18.4 µM [cytotoxic, partial curve] | 
20 | CCOc1ccc(N(CC(=O)Nc2ccc(Br)cc2)S(C)(=O)=O)cc1 | inconclusive: 29.1 µM [cytotoxic, single point] | 
21 | O=C(NCc1ccccc1)c1onc(CSc2ccccn2)c1C(=O)NCc1ccccc1 | inconclusive: 0.0073 µM [cytotoxic, full curve, poor fit] | 
22 | CC(Nc1nc(N2CCCCC2)nc2ccccc12)c1ccccc1 (stereo not drawn) | inconclusive: 10 µM [cytotoxic, partial curve, poor fit] | 
23 | O=C(COC(=O)c1ccc(O)cc1)Nc1ccccc1-c1ccccc1 | inconclusive: 32.6 µM [cytotoxic, single point] | 

Row | SMILES | Potency | activity change, negative = cytotoxicity
24 | S=C(NCCCN1CCN(CCCNC(=S)NC2CCCCC2)CC1)NC1CCCCC1 | inconclusive: 3.66 µM [rising, full curve, poor fit] | 
25 | CS(=O)(=O)/C(C#N)=C/c1cccn1S(=O)(=O)c1ccc([N+](=O)[O-])cc1 |  | inactive: 14.5%
26 | CN1C(=O)/C(=C\c2cc(N=Nc3ccccc3)ccc2O)SC1=S | inconclusive: 29.1 µM [cytotoxic, single point] | 
27 | Cc1ccc2nc(C)c3c(c2c1)OC(C(C)(Cl)Br)C3 (stereo not drawn) | inconclusive: 8.2 µM [cytotoxic, partial curve, poor fit] | 
28 | Nc1ccn(Cc2ccccc2)n1 | inconclusive: 23.1 µM [rising, single point] | 
29 | O=C(NCCc1ccco1)c1nn(Cc2ccccc2)c(=O)c2ccccc12 | inconclusive: 16.4 µM [cytotoxic, partial curve, poor fit] | 
30 | COc1ccc(CCN2CC(C(=O)NCCc3ccccc3C(F)(F)F)CCC2=O)cc1 (stereo not drawn) | inconclusive: 0.58 µM [cytotoxic, full curve] | 
31 | COc1ccc(-c2ccc3oc(-c4ccc(OC)cc4)c(C#CCO)c3c2)cc1 |  | inactive: -0.147%
32 | CCCCn1cnc2c([nH]c3cc(OC)ccc32)c1=O | inconclusive: 11.6 µM [cytotoxic, partial curve, poor fit] | 
33 | COc1ccc(NC(=O)c2ccc(N(C)S(C)(=O)=O)cc2)cc1OC | inconclusive: 29.1 µM [cytotoxic, single point] | 
34 | CCN1C(=O)CS/C1=C(\C#N)S(=O)(=O)c1ccccc1 | inconclusive: 16.4 µM [rising, single point] | 
35 | CCCn1c(NC(=S)Nc2ccccc2)nc2ccccc21 | active: 16.4 µM | 
36 | COc1ccc(CCNC(=O)CN2C(=O)C(=O)N(C3CCCC3)C2=O)cc1OC |  | inactive: -6.45%
37 | O=[N+]([O-])c1c(NCCCO)cc(N2CCN(Cc3ccc4c(c3)OCO4)CC2)c2nonc12 | active: 16.4 µM | 
38 | COc1ccccc1Cn1c(C)c(C(=O)NCc2ccc(C#N)cc2)sc1=O | active: 16.4 µM | 
39 | CCOC(=O)[C@@H](C)N(Cc1ccc(OC)cc1)S(=O)(=O)N(Cc1ccccc1)[C@H](C(=O)OC)C(C)C | active: 9.2 µM | 
40 | O=C1NC[C@H](CCCCN2CCN(CCC3CCCCC3)C(=O)C2=O)N(CCc2ccc(O)cc2)C1=O | inconclusive: 29.1 µM [rising, single point] | 
41 | COc1cc2cc(CN(Cc3cccnc3)C(=O)Nc3ccccc3F)c(=O)[nH]c2cc1OC |  | inactive: 0%
42 | CCOc1ccccc1N1CCN(C(=O)CCNS(=O)(=O)c2ccccc2F)CC1 | inconclusive: 7.31 µM [cytotoxic, partial curve] | 
43 | CCC/C(O)=C1\C(=O)CCCC1=NCCCCCC(=O)O | inconclusive: 18.4 µM [rising, single point] | 
44 | C[C@H](NC(=O)OC(C)(C)C)c1nnc(SCC(=O)c2ccc(Cl)cc2)o1 | inconclusive: 20.6 µM [cytotoxic, partial curve, poor fit] | 
45 | Cc1ccc(C(=O)NCc2ccccc2)cc1Br | active: 18.4 µM | 
46 | COc1ccc(N2C(N)=C(C#N)C(c3cc(CN4CCOCC4)cs3)C3=C2CCCC3=O)cc1 (stereo not drawn) | inconclusive: 18.4 µM [rising, single point] | 

Row | SMILES | Potency | activity change, negative = cytotoxicity
47 | O=C(Nc1cc2c(cc1Cl)OCCCO2)c1ccc(F)cc1 | active: 16.4 µM | 
48 | COc1ccc(-c2cn3cccc(C)c3n2)cc1Br | inconclusive: 14.6 µM [cytotoxic, partial curve] | 
49 | CCCn1c(NC(=O)CN2C(=O)NC3(CCCCC3)C2=O)nc2ccccc21 | inconclusive: 29.1 µM [cytotoxic, single point] | 
50 | COc1ccc([C@H]2C[C@@H](O)[C@H](n3cc(COC(=O)c4ccccc4)nn3)CN2C(=O)C2CCCCC2)cc1 | inconclusive: 29.1 µM [rising, single point] | 
51 | COC(=O)C1C(=O)C=C(Nc2ccc(F)cc2F)CC1c1ccccc1 (stereo not drawn) |  | inactive: -29.7%
52 | CCOC(=O)N1CCN(c2ncnc3c2oc2nc(C(C)C)c4c(c23)CCC4)CC1 | inconclusive: 25.9 µM [cytotoxic, single point] | 
53 | O=[N+]([O-])c1ccc(N2CCN(c3ccccc3F)CC2)c(S(=O)(=O)N2CCOCC2)c1 | active: 7.31 µM | 
54 | C=C(C)CSc1nnc2n(Cc3ccccc3)c(=O)c3c4c(sc3n12)CCC4 | inconclusive: 14.6 µM [rising, single point] | 
55 | CC(Cc1ccsc1)NC(=O)CCc1nnc(CCc2ccccc2)o1 (stereo not drawn) | inconclusive: 20.6 µM [cytotoxic, single point] | 
56 | CCCSc1nc2sc3c(c2c(=O)n1-c1ccc(C)c(Cl)c1)CCN(C(C)=O)C3 |  | inactive: -7.15%
57 | Cn1c(CNc2nc3ccccc3n2CCN2CCCCC2)nc2ccccc21 | inconclusive: 14.6 µM [cytotoxic, partial curve] | 
58 | COc1ccccc1-c1c(C(F)(F)F)oc2cc(OS(C)(=O)=O)ccc2c1=O | active: 20.6 µM | 
59 | CC(=O)c1ccc(-n2nnnc2SCC(=O)N2CCc3ccccc3C2)cc1 | active: 11.6 µM | 
60 | COc1ccccc1N1CCN(C(=O)c2ccc(-c3ccccc3)cc2)CC1 | inconclusive: 16.4 µM [cytotoxic, single point] | 
61 | CC/C(=N\NC(=S)Nc1cc(C)ccc1C)c1ccc(OC(F)F)cc1 | inconclusive: 13 µM [cytotoxic, partial curve] | 
62 | Cc1nnc(NC(=O)Nc2cccc(Cl)c2)s1 | inconclusive: 29.1 µM [cytotoxic, partial curve, poor fit] | 
63 | CC(C)OCCCNC(=O)CN1CCN(Cc2ccccc2Cl)C1=O |  | inactive: -2.35%
64 | C/C(=N\NC(=O)c1ccc(NS(=O)(=O)c2cccs2)cc1)c1ccccn1 | inconclusive: 23.1 µM [cytotoxic, partial curve, poor fit] | 
65 | Cc1cc(NC(=O)CCC(=O)N(Cc2ccco2)C2(C(=O)NC3CCCCC3)CCCC(C)C2)no1 (stereo not drawn) | inconclusive: 5.8 µM [cytotoxic, full curve] | 
66 | CSc1cccc(NC(=S)N2CCC(N(C)C3CCCCC3)CC2)c1 | inconclusive: 5.8 µM [cytotoxic, partial curve, poor fit] | 
67 | COc1cc2c(cc1OC)CN(c1nc(CN3CCOCC3)nc3sc4c(c13)CCCC4)CC2 | inconclusive: 29.1 µM [cytotoxic, single point] | 
68 | Cc1cc(N2CCOCC2)nc2ccc(NC(=O)CCC(=O)N3CCC(C)CC3)cc12 |  | inactive: 6.51%

3 entries from above, sorted by count of non-hydrogen atoms, ascending.
Row | SMILES | Potency | activity change, negative = cytotoxicity
47 | O=C(Nc1cc2c(cc1Cl)OCCCO2)c1ccc(F)cc1 | active: 16.4 µM | 
63 | CC(C)OCCCNC(=O)CN1CCN(Cc2ccccc2Cl)C1=O |  | inactive: -2.35%
54 | C=C(C)CSc1nnc2n(Cc3ccccc3)c(=O)c3c4c(sc3n12)CCC4 | inconclusive: 14.6 µM [rising, single point] | 
